Reference: the supplement of paper PMC8616043
Counter-ions that a name gives are not always drawn. The list shows a part of the results. Repeats in this data set agree poorly, so a single value says little.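 Human U-2 OS cells stably expressing a GFP sensor with a nuclear import signal and classical export signal were transfected to produce PR50, a 50-repeat proline–arginine dipeptide from ALS/FTD gene C9ORF72. Nuclear-minus-cytoplasm GFP was scaled from DMSO (low) to PR-only (high), scored against plate test wells; strongly negative scores marked PR-reversing hits.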

Tested on: U-2 OS NCT-C biosensor cells expressing PR50
Assay: Z-score of normalised NCT-C biosensor translocation index in PR50-expressing cells; higher = more nuclear biosensor (more disrupted nuclear export)
Conditions: 3 µM; 24 h

Structure (SMILES) | Z-score
COc1c2ccoc2cc2oc(C)cc(=O)c12 [Visnagin] | inactive: -0.351
NCC(=O)CCC(=O)O [Aminolevulinic Acid·HCl] | inactive: -0.0667
O=C(O)C[C@H](O)C[C@H](O)/C=C/c1c(C2CC2)nc2ccccc2c1-c1ccc(F)cc1 [Pitavastatin Calcium] | inactive: 0.147
Cc1ccc(C)c(OCCCC(C)(C)C(=O)O)c1 [Gemfibrozil] | inactive: 0.697
O=c1[nH]c2cc(Cl)ccc2c(O)c1-c1cccc(Oc2ccccc2)c1 | inactive: 0.324
NCCCCN [Putrescine dihydrochloride] | inactive: -0.911
CN(Cc1ccc(C(C)(C)C)cc1)Cc1cccc2ccccc12 [Butenafine·HCl] | inactive: 0.232
CCCCCCCCCCCC(=O)c1c(O)c(C(=O)CCCCCCCCCCC)c(O)c(C2CC(c3ccc(O)cc3)Oc3cc(O)ccc32)c1O (configuration not stated) | inactive: 0.197
Cc1cccc(-c2[nH]ncc2-c2ccc3ncccc3n2)n1 | inactive: -0.299
C=C[C@@](C)(/C=C/c1ccc(O)cc1)CCC=C(C)C [Bakuchiol] | inactive: -0.0644
S=c1[nH]cnc2nc[nH]c12 [Mercaptopurine Hydrate] | inactive: 0.608
Cc1nnc(SCC2=C(C(=O)O)N3C(=O)[C@@H](NC(=O)Cn4cnnn4)[C@H]3SC2)s1 [Cefazolin sodium salt] | inactive: -0.202
Nc1nc2c(ncn2[C@@H]2O[C@H](CO)[C@@H](O)[C@@H]2O)c(=O)[nH]1 [Ara-G hydrate] | inactive: -0.274
COc1ccc2c3c1O[C@H]1C[C@@H](O)C=C[C@@]31CCN(C)C2 [Galantamine·HBr] | inactive: 0.0843
CCCCC1(C2CCCC2)Cc2cc(OCC(=O)O)c(Cl)c(Cl)c2C1=O (stereo in doubt) [R(+)-Butylindazone] | inactive: -0.652
CC1(C)S[C@@H]2[C@H](NC(=O)COc3ccccc3)C(=O)N2[C@H]1C(=O)O [Penicillin V Potassium] | inactive: -0.405
O=C1OC(=O)[C@H]2[C@@H]1[C@@H]1CC[C@H]2O1 [Norcantharidin] | inactive: -0.218
CC(C)Cn1cnc2c(N)nc3ccccc3c21 [Imiquimod] | inactive: 0.18
Cc1nc2ccc(NC(=O)Nc3ccnc4cccnc34)cc2o1 | inactive: -0.306
NC(=O)N1c2ccccc2CC(=O)c2ccccc21 [Oxcarbazepine] | inactive: 0.419
NC1=NCC2c3ccccc3Cc3ccccc3N12 (configuration not stated) [Epinastine·HCl] | inactive: 0.364
NC1=NCC2c3ccccc3Cc3ccccc3N12 (configuration not stated) [Epinastine hydrochloride] | inactive: -0.0277

Six entries from above, with tabs:
Structure (SMILES)	Z-score
Nc1nc2c(ncn2[C@@H]2O[C@H](CO)[C@@H](O)[C@@H]2O)c(=O)[nH]1 [Ara-G hydrate]	inactive: -0.274
COc1ccc2c3c1O[C@H]1C[C@@H](O)C=C[C@@]31CCN(C)C2 [Galantamine·HBr]	inactive: 0.0843
CCCCC1(C2CCCC2)Cc2cc(OCC(=O)O)c(Cl)c(Cl)c2C1=O (stereo in doubt) [R(+)-Butylindazone]	inactive: -0.652
CC1(C)S[C@@H]2[C@H](NC(=O)COc3ccccc3)C(=O)N2[C@H]1C(=O)O [Penicillin V Potassium]	inactive: -0.405
O=C1OC(=O)[C@H]2[C@@H]1[C@@H]1CC[C@H]2O1 [Norcantharidin]	inactive: -0.218
CC(C)Cn1cnc2c(N)nc3ccccc3c21 [Imiquimod]	inactive: 0.18
